Measured values: patent US10525115B2 (Immatics Biotechnologies GmbH, priority 2014, dated 2020)

Legend:
primary AML samples = test: HLA class I ligandome analysis (W6/32 immunoaffinity purification, LC-MS/MS) of primary AML samples; parameters: species or system human; details: AML patients (n=15)
[1] = test system: cancer tissues in comparison to non-cancerous tissues and organs; test: Presentation profile / over-presentation by label-free LC-MS (XPRESIDENT), tumor versus normal tissues, other proliferative diseases; parameters: species or system human; details: other proliferative diseases / organs (other than AML) that over- or exclusively present the peptide; Table 5
[2] = HLA class I ligandome, count for the HLA ligand (LiTAP) or, on protein lines, for the source protein (LiTAA)

Substance | Number of positive AMLs (primary AML samples; [2]) | Proliferative disease and location thereof [1] | Number of positive AMLs (primary AML samples; HLA ligand (LiTAP))
140 (ENEEKLKEL; listed as Homo sapiens) [compound 140] | 1 | stomach, metastatic, lung, large cell carcinoma | –
184 (KAVPSQKRT; listed as Homo sapiens) [compound 184] | 1 | lung, non-small cell lung carcinoma, stomach, adenocarcinoma | –
170 (WIDGVLNNPGPG; listed as Homo sapiens) [compound 170] | 1 | spleen, chronic myeloid leukemia | –
51 (GQSLIHVI; listed as Homo sapiens) [compound 51] | 1 | parathyroid gland, adenoma | –
155 (EELQLIRQA; listed as Homo sapiens) [compound 155] | 1 | kidney, clear cell renal cell carcinoma, kidney, polycystic kidney disease | –
167 (YEILIHDL; listed as Homo sapiens) [compound 167] | 3 | stomach, adenocarcinoma, spleen, chronic; myeloid leukemia | –
139 (EIIEKDTKY; listed as Homo sapiens) [compound 139] | 2 | stomach, metastatic, lung, large cell carcinoma | –
118 (DADSRAATV; listed as Homo sapiens) [compound 118] | 1 | liver, hepatocellular carcinoma, kidney, renal cell carcinoma | –
41: peptide found in KIF2C (gene looked up) (IYNGKLFDLL; listed as Homo sapiens) [compound 41] | 1 | stomach, metastatic, adenocarcinoma | –
200 (VLVDRTIYI; listed as Homo sapiens) [compound 200] | 3 | liver, hepatocellular carcinoma, liver, focal; nodular hyperplasia | –
23 (NAAILKKV; listed as Homo sapiens) [compound 23] | 2 | brain, glioblastoma, thyroid gland, nodular; hyperplasia | –
255 (KQQLELDSI; listed as Homo sapiens) [compound 255] | – | pancreas, adenocarcinoma, myometrium, leiomyoma | 1
222 (KEKPAENTL; listed as Homo sapiens) [compound 222] | 1 | kidney, clear cell renal cell carcinoma, spleen, non-Hodgkin's lymphoma | –
195 (FSKAKPSVL; listed as Homo sapiens) [compound 195] | 2 | liver, hepatocellular carcinoma, breast, infiltrating; lobular carcinoma | –
45 (SEETFRFEL; listed as Homo sapiens) [compound 45] | 1 | stomach, adenocarcinoma, endometrium, adenocarcinoma | –
165 (KEDIPGRHSY; listed as Homo sapiens) [compound 165] | 1 | stomach, adenocarcinoma, spleen, chronic; myeloid leukemia | –
7 (GQLPITIQV; listed as Homo sapiens) [compound 7] | 1 | kidney, clear cell renal cell carcinoma, bone, non- ossifying fibroma | –
256 (KTTDTVSSF; listed as Homo sapiens) [compound 256] | – | pancreas, adenocarcinoma, myometrium, leiomyoma | 1
173 (GTNDGPALKK; listed as Homo sapiens) [compound 173] | 1 | colon or rectum, liver, hepatocellular carcinoma | –

Substance | Number of positive AMLs (primary AML samples; [2]) | Proliferative disease and location thereof [1] | Number of positive AMLs (primary AML samples; HLA ligand (LiTAP))
248 (GLGPTFKL; listed as Homo sapiens) [compound 248] | – | lung, non-small cell lung carcinoma, stomach, adenocarcinoma | 1
53 (VLYEGIKVGK; listed as Homo sapiens) [compound 53] | 4 | parathyroid gland, adenoma | –
318 (GLDPNKPPEL; listed as Homo sapiens) [compound 318] | – | breast, carcinoma | 1
251 (VLGGKAFLEHL; listed as Homo sapiens) [compound 251] | – | stomach, endometrium, adenocarcinoma | 1
298 (LPEDKPRLI; listed as Homo sapiens) [compound 298] | – | colon or rectum, adenocarcinoma | 1
249 (NKGISDIIKV; listed as Homo sapiens) [compound 249] | – | lung, non-small cell lung carcinoma, stomach, adenocarcinoma | 1
142 (ESAALIHHY; listed as Homo sapiens) [compound 142] | 2 | liver, hepatocellular carcinoma, fibromatosis | –
228 (ILKDMGITEY; listed as Homo sapiens) [compound 228] | 2 | stomach, adenocarcinoma, metastatic renal cell carcinoma | –
206 (VEKILLSVV; listed as Homo sapiens) [compound 206] | 2 | lung, non-small cell lung carcinoma, lung, neuroendocrine carcinoma | –
186 (SLIAVFQKY; listed as Homo sapiens) [compound 186] | 1 | lung, non-small cell lung carcinoma, stomach, adenocarcinoma | –
244 (RTMVKTLEY; listed as Homo sapiens) [compound 244] | – | colon or rectum, adrenal gland, adrenal cortical carcinoma | 1
293 (YHSQDRYEF; listed as Homo sapiens) [compound 293] | – | stomach, metastatic, non-Hodgkin's lymphoma | 3
324 (YELHVFTF; listed as Homo sapiens) [compound 324] | – | colon, adenoma | 1
242 (EVTTNIPKM; listed as Homo sapiens) [compound 242] | – | liver, hepatocellular carcinoma, cancer, adenoid; cystic carcinoma | 3
166 (KETKAVTNF; listed as Homo sapiens) [compound 166] | 1 | stomach, adenocarcinoma, spleen, chronic; myeloid leukemia | –
175 (NTASGGMTR; listed as Homo sapiens) [compound 175] | 1 | brain, glioblastoma, skin, squamous cell carcinoma | –
129 (MEKSDKNQ; listed as Homo sapiens) [compound 129] | 1 | stomach, adenocarcinoma, kidney, Wilm's tumor | –
202 (TVADQVLVGSY; listed as Homo sapiens) [compound 202] | 1 | stomach, adenocarcinoma, colon, adenocarcinoma | –
